Data taken from PMC10584915.
No constants are given. Whether binding was seen depends on the method and setting. In cells and extracts the contact can be indirect. Some binding calls cover weakened binding; strength is not graded here.

Molecular target: SMN (human (endogenous in HeLa)), Q16637
Assay: co-IP; SMN complex precipitated from cell lysate (1xPBS, 0.01% NP-40, 2.5 mM MgCl2) with anti-SMN antibody 7B10 covalently coupled to ProteinG-Sepharose, 3 h at 4 °C; beads analysed by SDS-PAGE with Coomassie staining or western blotting; cells mock treated or treated with dTAG13 (0.5 uM, 72 h) to degrade Gemin3
Conditions: remark: other sources report otherwise

binding: binds
B1: Gemin4, P57678 1-1058 (protein)
chain: MDLGPLNICEEMTILHGGFLLAEQLFHPKALAELTKSDWERVGRPIVEALREISSAAAHSQPFAWKKKALIIIWAKVLQPHPVTPSDTETRWQEDLFFSVGNMIPTINHTILFELLKSLEASGLFIQLLMALPTTICHAELERFLEHVTVDTSAEDVAFFLDVWWEVMKHKGHPQDPLLSQFSAMAHKYLPALDEFPHPPKRLRSDPDACPTMPLLAMLLRGLTQIQSRILGPGRKCCALANLADMLTVFALTEDDPQEVSATVYLDKLATVISVWNSDTQNPYHQQALAEKVKEAERDVSLTSLAKLPSETIFVGCEFLHHLLREWGEELQAVLRSSQGTSYDSYRLCDSLTSFSQNATLYLNRTSLSKEDRQVVSELAECVRDFLRKTSTVLKNRALEDITASIAMAVIQQKMDRHMEVCYIFASEKKWAFSDEWVACLGSNRALFRQPDLVLRLLETVIDVSTADRAIPESQIRQVIHLILECYADLSLPGKNKVLAGILRSWGRKGLSEKLLAYVEGFQEDLNTTFNQLTQSASEQGLAKAVASVARLVIVHPEVTVKKMCSLAVVNLGTHKFLAQILTAFPALRFVEEQGPNSSATFMVSCLKETVWMKFSTPKEEKQFLELLNCLMSPVKPQGIPVAALLEPDEVLKEFVLPFLRLDVEEVDLSLRIFIQTLEANACREEYWLQTCSPFPLLFSLCQLLDRFSKYWQLPKEKRCLSLDRKDLAIHILELLCEIVSANAETFSPDVWIKSLSWLHRKLEQLDWTVGLRLKSFFEGHFKCEVPATLFEICKLSEDEWTSQAHPGYGAGTGLLAWMECCCVSSGISERMLSLLVVDVGNPEEVRLFSKGFLVALVQVMPWCSPQEWQRLHQLTRRLLEKQLLHVPYSLEYIQFVPLLNLKPFAQELQLSVLFLRTFQFLCSHSCRDWLPLEGWNHVVKLLCGSLTRLLDSVRAIQAAGPWVQGPEQDLTQEALFVYTQVFCHALHIMAMLHPEVCEPLYVLALETLTCYETLSKTNPSVSSLLQRAHEQRFLKSIAEGIGPEERRQTLLQKMSSF
